Details of series [1]: species or system human. Particulars: population PK estimate.
A short description of series [2]: Phase I DDI trial, atorvastatin arm: plasma pharmacokinetics of atorvastatin and metabolites before and on day 5 of ritonavir. Conditions: for Tmax: Median tmax (range); for Vd/F: Vz/F.

`CC(C)c1c(C(=O)Nc2ccccc2)c(-c2ccccc2)c(-c2ccc(F)cc2)n1CC[C@@H](O)C[C@@H](O)CC(=O)O` [Atorvastatin, atorvastatin, reference compound]: in series [1], the “Vt/F (apparent volume of peripheral compartment)” value is listed as 4040 L. For the same compound, in series [1] (IIV 89.5 CV %), the “Vc/F (apparent volume of the central compartment)” value is recorded as 2507 L. Besides, the “AUC∞” value in series [2] (Baseline, single dose 10 mg atorvastatin, plasma, geometric mean (95% CI), eight healthy volunteers) is reported as 17.8 (13.0–24.4) h • ng/mL. In series [2] (fifth day of ritonavir (2 × 100 mg/day) vs baseline, 10 mg atorvastatin), the “increase of Cmax during ritonavir” value is recorded as 3.78 fold. For the same compound, the AUC(0-inf) in series [2] (human, plasma, oral, 10 mg) was 84.9 ng·h/mL. The Cmax in series [2] (human, plasma, oral, 10 mg, Cmax, Day 5 of ritonavir (2 × 100 mg/day), single dose 10 mg atorvastatin, geometric mean (95% CI)) is 8.57 ng/mL. The Tmax was found to be 1.25 h in series [2] (human, plasma, oral, 10 mg, Baseline, single dose 10 mg atorvastatin) and 2 h in series [2] (human, plasma, oral, 10 mg, Day 5 of ritonavir (2 × 100 mg/day), single dose 10 mg atorvastatin). Moreover, the Vd/F came to 7350 L in series [2] (human, plasma, oral, 10 mg, Baseline, single dose 10 mg atorvastatin, geometric mean (95% CI)) and 1740 L in series [2] (human, plasma, oral, 10 mg, Day 5 of ritonavir (2 × 100 mg/day), single dose 10 mg atorvastatin, geometric mean (95% CI)).

The values are drawn from PMC11954719 (Cardiovascular Drugs and Therapy, 2023).
